According to patent publication US9682960B2 (priority 2013, dated 2017):
At least one compound was matched to its structure with a doubt left.

Sequences of proteins named here, by UniProt entry; tags and fusion partners are left off. A change or cut given only in a name is not applied to a line headed by its entry.
UniProt P10275: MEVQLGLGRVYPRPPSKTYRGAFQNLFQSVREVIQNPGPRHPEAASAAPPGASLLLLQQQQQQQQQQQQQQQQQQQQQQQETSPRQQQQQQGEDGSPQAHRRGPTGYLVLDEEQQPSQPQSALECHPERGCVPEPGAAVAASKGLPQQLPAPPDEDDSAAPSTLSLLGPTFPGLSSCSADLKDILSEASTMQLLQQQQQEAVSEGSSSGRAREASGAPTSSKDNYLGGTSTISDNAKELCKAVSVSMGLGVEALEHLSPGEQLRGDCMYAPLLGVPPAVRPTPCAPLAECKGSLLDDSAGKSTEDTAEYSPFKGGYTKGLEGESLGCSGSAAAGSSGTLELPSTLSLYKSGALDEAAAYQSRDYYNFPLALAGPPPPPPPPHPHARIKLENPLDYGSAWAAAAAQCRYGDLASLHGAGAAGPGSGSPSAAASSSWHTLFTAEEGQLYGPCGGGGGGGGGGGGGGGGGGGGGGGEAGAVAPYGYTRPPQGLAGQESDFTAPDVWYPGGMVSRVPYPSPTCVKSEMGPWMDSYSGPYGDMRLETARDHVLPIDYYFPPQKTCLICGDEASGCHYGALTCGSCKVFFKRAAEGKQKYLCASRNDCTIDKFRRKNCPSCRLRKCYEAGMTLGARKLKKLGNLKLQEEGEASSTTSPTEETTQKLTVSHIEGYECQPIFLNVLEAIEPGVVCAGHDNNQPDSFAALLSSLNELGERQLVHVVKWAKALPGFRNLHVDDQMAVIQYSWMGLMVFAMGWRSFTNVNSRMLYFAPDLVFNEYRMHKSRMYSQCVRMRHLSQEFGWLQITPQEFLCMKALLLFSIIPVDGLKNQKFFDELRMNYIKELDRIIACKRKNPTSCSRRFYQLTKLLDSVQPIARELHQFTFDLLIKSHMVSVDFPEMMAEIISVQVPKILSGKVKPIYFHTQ

What was measured:
Androgen Receptor = experiment: Overall classification (antiandrogen / SARM) in the models studied
Human Androgen Receptor = Human Androgen Receptor (Homo sapiens (Human), UniProt P10275); experiment: Androgen receptor assay: [3H]R1881 displacement, cytosol of HEK-293 cells transfected with hAR (hydroxylapatite assay); type: binding; conditions: SAR discussion

Structure (SMILES)	classification as antiandrogen or SARM (in words) (Androgen Receptor)	affinity for the androgen receptor (in words) (Human Androgen Receptor)
CC1(C)C(=O)N(c2ccc(C#N)c(C(F)(F)F)c2)C(=O)N1CCCOc1ccc(-c2ccncc2)cc1 [EM-8940]	better antiandrogens	higher affinity
CC1(C)C(=O)N(c2ccc(C#N)c(F)c2)C(=O)N1CCCOc1ccc(-c2ccncc2)cc1 [EM-9173]	weak antiandrogen	
Cc1c(N2C(=O)N(CCCOc3ccc(-c4ccncc4)cc3)C(C)(C)C2=O)ccc(C#N)c1C(F)(F)F [EM-9247]	antiandrogen with some agonistic activity	
